Laboratory results taken from patent US20080248995, “Modulation of PPARgamma2 gene promoter by FOXO1” (Technion Research and Development Foundation Ltd., published 2008).
For part of these data: At least one result comes from cells or an extract, where the contact may be indirect. For part of these data: Construct, isoform or probe ends are uncertain for at least one entry. For part of these data: A negative result means that nothing was seen under these conditions.

Chains of the proteins cited; added tags and fusions are not shown.
UniProt Q12778, whole entry V343M: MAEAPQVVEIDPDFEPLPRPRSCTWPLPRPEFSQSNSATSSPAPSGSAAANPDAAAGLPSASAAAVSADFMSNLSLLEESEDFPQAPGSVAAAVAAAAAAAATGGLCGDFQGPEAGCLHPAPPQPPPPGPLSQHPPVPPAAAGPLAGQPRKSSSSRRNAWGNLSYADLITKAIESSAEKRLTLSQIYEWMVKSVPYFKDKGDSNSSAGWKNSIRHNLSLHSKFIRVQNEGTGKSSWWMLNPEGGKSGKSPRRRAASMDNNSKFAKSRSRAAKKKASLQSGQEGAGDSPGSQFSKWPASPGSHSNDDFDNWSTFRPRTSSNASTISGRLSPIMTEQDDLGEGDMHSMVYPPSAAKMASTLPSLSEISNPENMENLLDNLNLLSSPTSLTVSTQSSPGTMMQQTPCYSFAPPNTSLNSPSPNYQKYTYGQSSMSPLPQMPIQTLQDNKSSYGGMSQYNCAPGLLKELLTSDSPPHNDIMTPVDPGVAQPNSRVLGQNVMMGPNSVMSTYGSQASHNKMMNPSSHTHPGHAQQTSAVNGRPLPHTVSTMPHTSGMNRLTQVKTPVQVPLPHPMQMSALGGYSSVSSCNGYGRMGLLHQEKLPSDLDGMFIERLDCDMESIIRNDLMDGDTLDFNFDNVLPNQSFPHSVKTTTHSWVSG
UniProt Q12778, whole entry H215R/V343M: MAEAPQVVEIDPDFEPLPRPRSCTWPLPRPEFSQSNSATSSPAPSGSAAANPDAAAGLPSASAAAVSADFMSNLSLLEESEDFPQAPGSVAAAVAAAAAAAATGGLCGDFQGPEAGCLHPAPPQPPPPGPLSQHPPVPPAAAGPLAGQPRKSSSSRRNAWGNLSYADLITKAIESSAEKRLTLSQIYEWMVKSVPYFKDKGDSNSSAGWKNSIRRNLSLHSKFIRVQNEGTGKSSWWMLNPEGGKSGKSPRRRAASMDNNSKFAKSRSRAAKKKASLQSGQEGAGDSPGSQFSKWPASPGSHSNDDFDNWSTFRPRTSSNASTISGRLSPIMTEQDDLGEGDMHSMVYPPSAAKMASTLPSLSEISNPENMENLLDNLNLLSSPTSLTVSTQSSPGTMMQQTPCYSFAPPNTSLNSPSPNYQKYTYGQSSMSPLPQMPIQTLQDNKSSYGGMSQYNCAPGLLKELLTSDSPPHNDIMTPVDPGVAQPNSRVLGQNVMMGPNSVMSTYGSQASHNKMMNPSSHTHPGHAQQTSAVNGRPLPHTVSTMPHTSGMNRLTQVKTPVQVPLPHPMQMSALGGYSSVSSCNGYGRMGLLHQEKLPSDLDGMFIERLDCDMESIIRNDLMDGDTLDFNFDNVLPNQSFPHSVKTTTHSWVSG

How the values were obtained:
[1] = molecular target: FOXO1 (FLAG-tagged, transfected) (Homo sapiens) (UniProt Q12778); experiment: binding assay; conditions: ChIP in HEK-293, two-step cross-linking; no signal with one-step cross-linking; protein in cells; protein details: FLAG, pcDNA3
[2] = molecular target: FOXO1 (FLAG-tagged, transfected) (Homo sapiens) (UniProt Q12778); experiment: activity in cells; conditions: dose-dependent repression of luciferase reporter in primary rat adipocytes; insulin partly reverses; protein in cells; protein details: FLAG, pcDNA3
[3] = molecular target: FOXO1 H215R (Homo sapiens) (UniProt Q12778); experiment: activity in cells; conditions: DNA binding-defective mutant completely lost repression; protein in cells; protein details: FLAG, pcDNA3

“CAAATAATGTGATTAGAGATTCAACCAGGAATAGACACCGAAAGAAAACTTTGCCCAAATAAGCTTTCTGGTATTTCATAAGCAAGAGATTTAAGTTTTCCATTTAAGAAGCAATTGTGAATTTTACAACAATAAAAAATGCAAGTGGATATTGAACAGTCTCTGCTCTGATAATTCTAAATACAGTACAGTTCACGCCCCTCACAAGACACTGAACATGTGGGTCACCGGCGAGACAGTGTGGCAATATTTTCCCTGTAA (double strand) [hPPARγ2 promoter region 63-323]”: binds [1].
For “CAGTAGCATGCTGATACCAACGTTTAAACTATGGATACATATTTGAATTCCAAATTTTTCTTCAAATAATGTGATTAGAGATTCAACCAGGAATAGACACCGAAAGAAAACTTTGCCCAAATAAGCTTTCTGGTATTTCATAAGCAAGAGATTTAAGTTTTCCATTTAAGAAGCAATTGTGAATTTTACAACAATAAAAAATGCAAGTGGATATTGAACAGTCTCTGCTCTGATAATTCTAAATACAGTACAGTTCACGCCCCTCACAAGACACTGAACATGTGGGTCACCGGCGAGACAGTGTGGCAATATTTTCCCTGTAATGTACCAAGTCTTGCCAAAGCAGTGAACATTATGACACAACTTTTTGTCACAGCTGGCTCCTAATAGGACAGTGCCAGCCAATTCAAGCCCAGTCCTTTCTGTGTTTATTCCCATCTCTCCCAAATATTTGGAAACTGATGTCTTGACTCATGGGTGTATTCACAAATTCTGTTACTTCAAGTCTTTTTCTTTTAACGGATTGATCTTTTGCTAGATAGAGACAAAATATCAGTGTGAATTACAGCAAACCCCTATTCCATGCT (double strand) [hPPARγ2 promoter hG2-P587]”, the activity on this sequence (% repression below basal) [2] was under 65 and the “activity on this sequence” value [3] was “not active”.
